Assay results published in the supplement of paper PMC3334620.
The full ranking holds about 33,000 sequences; the median of “E-score (-0.5 to 0.5)” is about -0.015, and the highest 2% start at about 0.3. The list shows a part of the results.

Target: T1, Abf1 (UniProt P14164)
T1 sequence: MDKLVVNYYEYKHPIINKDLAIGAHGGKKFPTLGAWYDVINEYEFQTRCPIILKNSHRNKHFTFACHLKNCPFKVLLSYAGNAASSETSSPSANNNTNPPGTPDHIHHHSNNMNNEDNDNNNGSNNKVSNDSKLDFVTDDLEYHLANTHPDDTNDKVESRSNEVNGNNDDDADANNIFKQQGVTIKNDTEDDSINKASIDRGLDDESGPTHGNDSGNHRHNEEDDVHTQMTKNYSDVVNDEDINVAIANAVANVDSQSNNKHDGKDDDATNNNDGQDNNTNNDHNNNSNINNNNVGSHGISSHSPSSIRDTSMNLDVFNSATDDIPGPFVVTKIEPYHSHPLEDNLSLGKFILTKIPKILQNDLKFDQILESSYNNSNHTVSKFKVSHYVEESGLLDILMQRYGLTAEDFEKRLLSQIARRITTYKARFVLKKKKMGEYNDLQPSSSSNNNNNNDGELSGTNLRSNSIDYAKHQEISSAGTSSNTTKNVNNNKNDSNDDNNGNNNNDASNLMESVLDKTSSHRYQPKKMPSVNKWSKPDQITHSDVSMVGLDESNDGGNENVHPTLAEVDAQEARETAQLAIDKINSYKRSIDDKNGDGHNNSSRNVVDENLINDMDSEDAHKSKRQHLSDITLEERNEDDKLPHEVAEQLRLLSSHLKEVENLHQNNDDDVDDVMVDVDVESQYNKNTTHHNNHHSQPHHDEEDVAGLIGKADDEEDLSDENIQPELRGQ
Experiment: PBM E-score (8-mer binding enrichment) (E-score (-0.5 to 0.5)); higher = stronger / more preferred TF binding
Conditions: protein concentration: 200 nM; construct: GST-full length
How it was run: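 Universal all-10-mer Agilent arrays, double-stranded by primer extension on fresh or once-stripped slides, were probed with about 100-200 nM GST-tagged yeast transcription factors made by PURExpress. Fluorescent anti-GST detected bound protein, and masliner normalised the scans. E-scores from the Universal PBM Analysis Suite were given to each ungapped eight-base word pooled with its reverse complement.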

Sequence | PBM E-score
AGAGTAAG | -0.0979
CCGTGCAA | 0.334
CGTTTTAA | 0.105
ACCAAAGG | -0.266
CCCTGGTC | -0.249
CCCAATGC | -0.262
ACCTGAAT | 0.125
GCGCGGAC | 0.0773
GTAATTTA | 0.0741
CGGATGGC | 0.0675
ACATTTTA | 0.258
GCGTTCGA | 0.139
CTAACTCA | -0.0437
ATCGAACA | 0.0596
CTAGATTC | -0.0799
AACGGTTG | -0.0453
ACTCCACA | -0.0769
ATTCGGGC | -0.0543
CTACTCAC | -0.00744
AAAGTGAA | -0.0183
TCCCTAAA | 0.0987
GAGTATAA | 0.0821
AGACGGAA | 0.151
ACGAATTA | 0.236
CCTGGTGA | 0.00561

Sequence | PBM E-score
AAGTGACT | 0.328
AACCCGAC | -0.0287
CAATCTCC | -0.166
CGGGCGGC | -0.294
AGCCCAAA | -0.0828
GGCGCAAA | -0.191
CCCGCCAA | -0.14
GCCAGAGC | -0.317
CGTGGGTC | 0.0419
AGAGGGAC | -0.137
ATGTTTCC | -0.131
CGAAGCGA | 0.103
AAACTCAA | 0.0218
ACAGCAGT | -0.0959
AGCTCGCG | -0.0339
ACGCCGAG | -0.0995
AGGACGCG | -0.102
CACGACCG | -0.0182
GAGTCGGA | -0.0845
GGTGCAAC | -0.0993
ACGTCTGC | -0.0123
ACAAGTTA | 0.0755
AAAAGACG | 0.0107
ATTATCTC | 0.119
CAGTAGAG | -0.209

Sequence | PBM E-score
CTGGCAAG | -0.163
AGCTTATG | 0.0987
ATTGTTAC | 0.111
TAAGGAAA | -0.0606
CGGTTCGA | 0.0347
AGAGCCGG | -0.245
CCGATTCC | -0.146
CCATCGGG | -0.121
AGGTGCAG | -0.0891
AGTTGTGC | -0.108
GGCTGGTA | -0.0983
GATCCACC | 0.0497
AACGTGGT | 0.12
AGAGCCCA | -0.0846
GAATTCTC | 0.164
ATACTGGC | -0.0373
GAAAGCCC | 0.0394
GCTCATAC | -0.069
ATGAAGAA | 0.0138
CCTTAAAA | 0.0216
ATCCATAG | -0.155
CCAGTATA | -0.0548
ATCAAGCA | 0.123
TATGACGA | 0.261
CTGCGGTC | -0.148

Sequence | PBM E-score
AGTCTATG | -0.185
TCATCCGA | 0.219
ACGATATA | 0.289
CACAGAAG | -0.124
CCTCCAAC | 0.0192
ATATAAGC | 0.154
TAATGGGA | -0.0779
ACATGCTC | 0.0343
TAGCAGCA | 0.0823
CCGACGCG | -0.0747
CCGTGCCA | 0.108
GGCAAAAC | -0.0611
CACGAAAC | 0.272
GCAATACC | 0.215
GCTGGTGA | 0.147
CCTAAGCG | -0.0394
AGGACAAC | -0.0182
GCGACCTA | 0.00691
GAAATTTA | 0.261
ATAAAAGG | 0.0301
TCTATTAA | 0.0568
AGTCCAAG | -0.107
GGAAAGAC | -0.127
ATCCTCCA | 0.0824
CTATAGGA | -0.0338

Sequence | PBM E-score
TCTGTTCA | 0.0997
GCTGTGAC | 0.00913
ACGACTAC | 0.329
CTACTACA | 0.0338
ACTATGAG | -0.0276
CGATTGAG | 0.0474
GAATTATA | 0.106
CAACAGTG | 0.0834
ACACCCCA | -0.187
GGAAGAAC | -0.098
AATGTCGA | 0.146
ACCACGGC | 0.00557
CGTTCGAG | 0.121
AGGAGTCA | 0.00134
CGACGACA | 0.311
ACACTACG | 0.0258
CAATTGTC | 0.0242
AGTGTCGA | 0.0762
GACTTATA | 0.107
GCATTGTA | -0.0355
ATCTCGGA | 0.114
AAATGCGA | 0.0734
GGCGACGA | 0.194
TTCATAAA | 0.0402
ACAGGAAC | -0.058

Sequence | PBM E-score
CGGGCTTC | -0.21
CCGCCTCG | 0.0539
AGGTTGTA | 0.0799
ACCCACGG | 0.189
ACGTGGCA | -0.181
ACGGCTAA | 0.244
GCAGTCGA | -0.201
TAACTTAA | 0.127
CGCGCCCA | -0.0778
TATCAACA | 0.169
GGCGGTGA | 0.184
ACCTTTAC | -0.0849
GAAATAAC | 0.113
CACGAGTG | 0.0916
AACAGTGC | -0.166
CTTAATAA | 0.0641
GAGACAAA | 0.0148
ACAGAAAG | -0.0338
CTCAAAGA | -0.088
ATATGCAT | 0.021
AGCACATG | 0.0444
CAGGTCCC | -0.205
GTATAGTA | 0.129
AGAGTGTC | -0.0328
GAATATAC | 0.0463

Looked up one by one from the list above (three):
Sequence | PBM E-score
GAGACAAA | 0.0148
TAACTTAA | 0.127
AGGTTGTA | 0.0799

In a second layout: results already given.
Sequence	PBM E-score
AAGTGACT	0.328
ACGATATA	0.289
ACACCCCA	-0.187

More results:

Sequence | PBM E-score
CGATTGGA | -0.00974
GTCGTCAA | 0.222
ATGAAGTA | 0.0372
AGTTCAGC | -0.0941
CCTCACAA | -0.12
AATCTCGT | 0.156
TAAAAATA | 0.162
AACAACAG | -0.158
CAAGGACA | -0.0527
AATCGACG | 0.217
ATATCTTG | 0.208
GGGCACTA | -0.00085
ACTATAAA | 0.0924
ACCGGACG | -0.0917
CGTATTGA | 0.307
AAGAATGC | -0.0612
ACCCTCCG | -0.144
CATAGTCG | 0.111
CTGGTAGC | -0.0656
ATATGGAA | -0.00864
CGTCAAAA | 0.244
GTGGTAAC | 0.177
AGCGCTTG | -0.119
CGCAATAA | 0.0869
ATGTGTGC | -0.128

Looked up above.
AAATGCGA | PBM E-score: 0.0734
CCTGGTGA | PBM E-score: 0.00561

Later entries.

Sequence | PBM E-score
CTTGCGGA | -0.00084
TAGTGCAA | 0.113
CATAACGA | 0.0819
AAGGGAAC | -0.341
ACGGCCGT | 0.121
GGACCGAA | 0.064
ATCTAAGA | -0.0332
ACGTAACA | -0.0692
ATTACAGG | 0.0689
ATGACAGA | 0.128
AACTACGT | -0.0112
GTTAGCCA | -0.0295
ACATATAA | 0.204
AGTTGGTC | -0.0718
ATTCGAAA | 0.107
GGATGCAC | -0.2
GCCGGCAC | -0.0153
GGGGCCAC | -0.357
GAGGGACC | -0.176
CTTAAGTC | -0.0516
CAAATCGC | -0.0589
CAACAGCG | -0.243
AACGCCCT | -0.0277
ACGCTCGG | -0.056
CGGAGGAG | -0.244

Sequence | PBM E-score
ATTATACA | 0.0365
CCGAACCG | -0.0651
AGCGACAT | 0.289
AAAACGAT | 0.326
CAAGGAGA | -0.216
CGCGCATA | 0.118
AGGAACCG | -0.0421
CACGCGAC | 0.032
GGACGGTA | 0.134
AGGACGAT | 0.214
GCCTGTCA | -0.106
CCTCTGGA | -0.0278
ACATAAGG | 0.0807
ATCGGAAT | 0.0728
ACACCCTA | 0.102
AAGCAACC | -0.0212
AGTTGAAG | -0.0636
CCGCAGCC | -0.137
CACATAAC | -0.0203
